# Measurements taken from PubChem BioAssay AID977628 (Broad Institute, 2014).
# Among all 1,900 compounds or so, fewer than 10 were called active. The shares of active, inactive and inconclusive entries below differ from those in the screen.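 How the source made its calls: active means compound lowering the normal-ribosome reporter at least twice as much as the humanized-ribosome reporter, growth loss under a set limit; inconclusive means no clear call, values can overlap the other calls; inactive means the rest.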
# Assay: growth of wild-type and h24-humanized E. coli strains – h24 mutant RFP vs wild-type GFP, cherry-pick, dose response (AID 977628)
# Conditions: E. coli WT GFP strain growth, fluorescence, 24 h; at 50 µM (top of the series) unless noted
row,SMILES,"activity change, negative = inhibition"
1,O=C(NCCc1ccc(O)cc1)c1[nH]c(C(F)(F)F)nc1-c1ccccc1,inconclusive: -4.53
2,COC(=O)c1cc2c(c3c4cc(F)ccc4n(S(=O)(=O)c4ccccc4)c13)C(=O)N(Cc1ccco1)C2,inconclusive: -10.1
3,Nc1ccccc1C#CC(=O)c1ccccc1,inconclusive: -46.1
4,CC(=O)c1ccccc1OCCOCCOCCOc1ccccc1C(C)=O,inconclusive: -3.23
5,C[C@@H]1CCCCO[C@H](CN(C)C)[C@@H](C)CN([C@H](C)CO)C(=O)c2cc(NC(=O)Nc3cccc4ccccc34)ccc2O1,inconclusive: 11.2
6,Cc1noc(C)c1NC(=O)Nc1ccc2c(c1)C(=O)N([C@@H](C)CO)C[C@@H](C)[C@@H](CN(C)C(=O)Nc1ccc3c(c1)OCO3)OCCCC[C@@H](C)O2,inconclusive: 3.86
7,Cc1ccn2cc(-c3cccc(NC(=O)c4cccs4)c3)nc2c1,inactive: -13.3
8,Cc1cccc(NC(=O)c2nc(S(=O)(=O)Cc3ccccc3)ncc2Cl)c1,inactive: 6.25
9,COc1ccc(C)c2sc(N(CCN(C)C)C(=O)c3ccc(S(=O)(=O)N(C)c4ccccc4)cc3)nc12,inactive: -0.093
10,Cn1cc([N+](=O)[O-])c(C(=O)Nc2ccc(-c3nc4ccccc4[nH]3)cc2)n1,inconclusive: -56.7
11,O=c1[nH]nc(SCc2ccccc2)n1C1CC2C=CC1C2 (stereo unspecified),inconclusive: -42.1
12,O=C(Nc1ccc2c(c1)OCCO2)C1C(c2ccccc2)=Nc2ccccc2N1C(=O)c1cccnc1 (stereo unspecified),inconclusive: -2.19
13,COc1ccc(C#Cc2ccc([C@@H]3[C@@H](CO)N4CCCCN(C(=O)Nc5ccc(F)cc5)C[C@H]34)cc2)cc1,inconclusive: 2.1
14,CCN1C(=O)C(CC(=O)Nc2ccc(F)cc2)N(CCCN2CCN(c3ccc(F)cc3)CC2)C1=S (stereo unspecified),inconclusive: -29.5
15,CN(C)C(=O)c1cccc(-c2ccc(C3[C@H]4CNC[C@@H]3N4S(=O)(=O)c3ccccc3F)cc2)c1 (stereo partly specified),inconclusive: -5.03
16,N#Cc1nc(Cc2ccccc2)oc1N1CCCC1,inconclusive: -16.8
17,COC(=O)c1ccc(CCc2cc(O)c(Br)cc2O)cc1,inactive: -3.46
18,O=C(C[n+]1ccc(Cc2ccccc2)cc1)Nc1ccc([N+](=O)[O-])cc1Cl,inactive: -6.85
19,O=C(c1ccccc1)N1CCN(c2ccc([N+](=O)[O-])c(NCC3CCCO3)c2)CC1 (stereo unspecified),inactive: -4.15
20,COc1ccc(-n2cc(-c3ccccc3)c3c(N4CCOCC4)ncnc32)cc1,inconclusive: -26.1
21,CNC[C@H]1OCCCC[C@@H](C)Oc2ccc(NC(=O)Nc3cccc4ccccc34)cc2C(=O)N([C@@H](C)CO)C[C@H]1C,inconclusive: -5.3
22,Cc1ccc(S(=O)(=O)N2CCOCC2)cc1NC(=O)COc1ccc(-c2nnco2)cc1,inconclusive: -12.8
23,Nc1ccc(C(=O)OCCCc2nc3cc4ccccc4cc3[nH]2)cc1,inactive: -0.534
24,CC(C)CN(C(=O)c1cc([N+](=O)[O-])cc([N+](=O)[O-])c1)C1CCS(=O)(=O)C1 (stereo unspecified),inactive: -6.36
25,CCC(CO)Oc1cc(NC(=O)c2ccccc2F)c2ncn(C(C)C)c2c1 (stereo unspecified),inconclusive: -21
26,CCNC(=O)C1(C)CCCN(Cc2cccc3ccccc23)C1 (stereo unspecified),inconclusive: -11.5

row,SMILES,"activity change, negative = inhibition"
1,O=C(COC(=O)c1ccc([N+](=O)[O-])o1)NC12CC3CC(CC(C3)C1)C2,inconclusive: -14
2,Cc1cc(NC(=O)CN2CCN(c3cccc(Cl)c3)CC2)no1,inconclusive: 0.186
3,COc1ccc(-c2cc(C(=O)Nc3ccc(C(N)=O)cc3)c3ccccc3n2)cc1OC,inactive: -5.45
4,O=C(COc1cccc2c1CCN(Cc1ccccc1F)C2=O)N1CCCCC1,inconclusive: -13.7
5,COc1ccc(CNC(=O)c2sc3nc4c(c(C(F)(F)F)c3c2N)CCC4)cc1OC,inactive: 3.27
6,O=S1(=O)N[C@H](Cc2ccccc2)COc2cc(N3CCSCC3)ccc21,inactive: -10.2
7,CN(C)CCCN(C(=O)CCOc1ccccc1)c1nc2c(F)cccc2s1,inconclusive: -6.68
8,COc1ccc(C#Cc2ccc([C@@H]3[C@H](CO)N4CCCCN(C(=O)Nc5cccc(F)c5)C[C@@H]34)cc2)cc1,inconclusive: 10.2
9,Cc1n[nH]c(C)c1S(=O)(=O)N1CCCC(C(=O)Nc2ccc(Br)cc2)C1 (stereo unspecified),inactive: -11.2
10,Cc1ccc(CSCC(=O)Nc2ccccc2F)cc1,inconclusive: -4.37
11,COc1ccccc1-c1noc2ncnc(Nc3ccccc3C)c12,inactive: -17
12,O=C(c1cc(S(=O)(=O)N2CCOCC2)ccc1Cl)N1CCc2ccccc2C1,inactive: -9.05
13,O=C(COC(=O)c1ccccc1O)NCCC1=CCCCC1,inconclusive: -14.8
14,O=C(C[C@H]1CC[C@H]2[C@@H](COC[C@@H](O)CN2C(=O)Nc2ccc(Cl)cc2)O1)N1CCCCC1,inconclusive: -4.82
15,CN(CC(=O)Nc1ccc(S(=O)(=O)N2CCCC2)cc1)CC(=O)Nc1ccc(F)c(F)c1F,inconclusive: -25.2
16,OC(COc1ccc(Cl)cc1)CN1CCN(c2ccccn2)CC1 (stereo unspecified),inactive: -6.82
17,Cc1cccc(Oc2ccc(NC(=O)c3ccccc3C(=O)O)cc2)c1,inconclusive: -17.6
18,O=C(Cc1ccc(Cl)cc1)c1ccc(O)cc1,inconclusive: -2.29
19,O=C(CCNC(=O)c1ccco1)Nc1cccc(Br)c1,inconclusive: -24.7
20,CN(C)CC(=O)N[C@@H]1CC[C@@H](CCNC(=O)Nc2ccc(Cl)cc2)O[C@H]1CO,inconclusive: -19.8
21,COc1cc(C(=O)NCCc2c[nH]c3ccccc23)ccc1OCc1c(C)noc1C,inconclusive: -9.39
22,O=C(c1ccc(N2CCCCC2)c([N+](=O)[O-])c1)N1CCN(c2ccccn2)CC1,inconclusive: -17.9
23,O=c1c2ccccc2nc(SCc2ccccc2)n1CC1CCCO1 (stereo unspecified),inactive: -17.8
24,NC(=O)c1cc(NC(=O)c2cc(Br)c(Br)s2)cc(C(N)=O)c1,inconclusive: -29.4
25,C[C@@H]1CN([C@H](C)CO)C(=O)c2cccc(NC(=O)Nc3ccc4c(c3)OCO4)c2O[C@@H]1CN(C)C(=O)Nc1ccc2c(c1)OCO2,inconclusive: -1.67

# A second format for 4 compounds above:
row | SMILES | activity change, negative = inhibition
10 | Cc1ccc(CSCC(=O)Nc2ccccc2F)cc1 | inconclusive: -4.37
11 | COc1ccccc1-c1noc2ncnc(Nc3ccccc3C)c12 | inactive: -17
12 | O=C(c1cc(S(=O)(=O)N2CCOCC2)ccc1Cl)N1CCc2ccccc2C1 | inactive: -9.05
13 | O=C(COC(=O)c1ccccc1O)NCCC1=CCCCC1 | inconclusive: -14.8
